The target in data set [1] is PARylated PARP1-FL (human) (UniProt P09874). The experiment in a line: EMSA. The following applies: NAD+; 25 mM Tris pH 7.5, 75 mM NaCl, 50 mM arginine, 0.1 mM TCEP, 0.1 ug/ul BSA, room temperature 30 min; 0.05 uM probe, 0-2.5 uM protein; native 10% PAGE in TBE; recombinant protein; residues 1-1014; protein details: His; label: 5'-32P.
Data set [2] concerns the target bovine serum albumin (bovine) (UniProt P02769). Nature of the data set: EMSA. The following applies: increasing BSA, data not shown; 25 mM Tris pH 7.5, 75 mM NaCl, 50 mM arginine, 0.1 mM TCEP, 0.1 ug/ul BSA, room temperature 30 min; 0.05 uM probe, 0-2.5 uM protein; native 10% PAGE in TBE; commercial protein; label: 5'-32P. In general terms: Mobility shift assays separate free from complexed probe on a gel.

Amino acid sequences for entries named in this document (tags omitted). Residues count along the entry.
UniProt P09874, whole entry: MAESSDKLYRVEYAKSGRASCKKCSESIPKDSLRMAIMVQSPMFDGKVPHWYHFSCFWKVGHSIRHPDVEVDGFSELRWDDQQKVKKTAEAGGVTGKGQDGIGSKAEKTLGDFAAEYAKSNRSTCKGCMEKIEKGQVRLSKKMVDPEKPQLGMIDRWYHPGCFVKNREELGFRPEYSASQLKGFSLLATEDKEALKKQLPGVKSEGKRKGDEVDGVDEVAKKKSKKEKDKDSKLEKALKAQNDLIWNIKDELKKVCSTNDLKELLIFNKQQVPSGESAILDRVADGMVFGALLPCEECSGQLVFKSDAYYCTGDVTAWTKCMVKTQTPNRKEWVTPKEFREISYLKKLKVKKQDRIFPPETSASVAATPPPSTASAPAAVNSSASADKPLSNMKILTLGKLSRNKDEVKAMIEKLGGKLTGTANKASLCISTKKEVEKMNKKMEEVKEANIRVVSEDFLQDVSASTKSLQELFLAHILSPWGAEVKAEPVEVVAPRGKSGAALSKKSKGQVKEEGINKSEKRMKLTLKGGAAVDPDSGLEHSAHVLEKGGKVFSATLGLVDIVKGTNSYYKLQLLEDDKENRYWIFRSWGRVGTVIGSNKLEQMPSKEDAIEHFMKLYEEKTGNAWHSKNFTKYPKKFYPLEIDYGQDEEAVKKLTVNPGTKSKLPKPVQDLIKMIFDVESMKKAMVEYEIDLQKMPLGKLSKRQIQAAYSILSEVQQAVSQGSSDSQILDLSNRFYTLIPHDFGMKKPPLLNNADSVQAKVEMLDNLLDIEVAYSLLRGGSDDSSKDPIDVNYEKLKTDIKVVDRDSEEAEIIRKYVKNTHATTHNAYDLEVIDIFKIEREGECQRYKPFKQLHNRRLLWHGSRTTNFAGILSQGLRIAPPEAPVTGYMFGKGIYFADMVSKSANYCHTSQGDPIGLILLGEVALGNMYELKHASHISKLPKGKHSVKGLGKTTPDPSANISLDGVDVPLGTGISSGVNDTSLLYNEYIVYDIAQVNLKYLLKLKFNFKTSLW
UniProt P02769, 25-607: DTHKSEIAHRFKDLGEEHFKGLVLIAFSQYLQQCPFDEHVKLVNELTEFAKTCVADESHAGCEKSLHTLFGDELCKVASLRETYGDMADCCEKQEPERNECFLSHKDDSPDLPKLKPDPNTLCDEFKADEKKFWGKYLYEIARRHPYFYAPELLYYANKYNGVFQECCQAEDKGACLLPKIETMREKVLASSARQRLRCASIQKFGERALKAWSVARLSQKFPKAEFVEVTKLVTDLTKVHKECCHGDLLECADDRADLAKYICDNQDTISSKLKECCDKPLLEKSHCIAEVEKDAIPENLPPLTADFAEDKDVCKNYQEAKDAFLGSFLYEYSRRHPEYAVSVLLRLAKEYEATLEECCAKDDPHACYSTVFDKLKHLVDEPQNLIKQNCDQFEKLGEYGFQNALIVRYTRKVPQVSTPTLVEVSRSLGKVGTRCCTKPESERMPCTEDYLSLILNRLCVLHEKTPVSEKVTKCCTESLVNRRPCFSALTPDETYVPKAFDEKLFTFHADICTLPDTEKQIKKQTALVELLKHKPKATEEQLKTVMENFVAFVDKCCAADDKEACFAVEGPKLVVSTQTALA

A negative result means that nothing was seen under these conditions.

In the case of UAGGCACCGGCAUCUUGAC [19-mer ssRNA], the binding result in data set [1] and in data set [2] was “no binding” each time.

The values above are taken from article PMC5787697.
